Laboratory results taken from US8415372B2, “Sulfonamide compound” (Asahi Kasei Pharma Corporation, priority 2007, dated 2013).
Some of these results come from one statement about several compounds together. At least one structure is not confirmed: it was looked up by name or label, or the drawing left a doubt.

The compounds below were run on rabbit normal intraocular pressure (assay: Intraocular pressure reducing action (Test Example 3)). Settings: 3 mM aqueous solution, 50 μl to the left eye; max difference of left and right eyes at 2, 4 and 6 hours relative to value before administration.
Format: in vivo, Japanese white rabbit
Experimental: A Japanese white rabbit having a body weight of about 2 kg was placed in a positioner and naturalized for one week before the experiment. An ophthalmologic local anesthesant (Benoxil) was administered to both eyes, and then intraocular pressure was measured by using a tonometer (Classic 30, Solan). A 3 mM aqueous solution of a test compound was administered in a volume of 50 μl to the left eye, and the right eye was not treated (control eye). The intraocular pressure values were measured for the left and right eyes immediately before, and 2, 4 and 6 hours after the administration of the aqueous solution of the test compound, and the difference of the measured values for the left and right eyes was considered an intraocular pressure reduction value of the test medicament at each measurement time. The largest difference of the values for the left and right eyes among the measured values at the measurement times (after 2, 4 and 6 hours) was considered the maximum intraocular pressure reduction value (max ? IOP) of each test medicament. The intraocular pressure reducing degree representing the intraocular pressure reducing action of each test medicament was calculated according to the following formula. Since rabbits show significant daily variation of intraocular pressure, daily variation is added when change of intraocular pressure is measured over time, and the intraocular pressure reducing action may be overestimated. Therefore, we used this calculation method of intraocular pressure reduction value in order to minimize the influence of the variation. Intraocular pressure reducing degree(%)=(max ? IOP/Intraocular pressure value immediately before administration)×100

| SMILES | Intraocular pressure reducing degree |
| --- | --- |
| N[C@H]1CCN(S(=O)(=O)c2cccc3cncc(C#CCO)c23)C1 [Example 28-1, (S)-3-Amino-1-[4-(2-hydroxymethyl)ethynyl-5-isoquinolinesulfonyl]pyrrolidine] | ≥ 20% |

Same assay, conditions: same test with a test compound of 1 mM

| SMILES | Intraocular pressure reducing degree |
| --- | --- |
| Cc1cncc2cccc(S(=O)(=O)N3CC[C@H](N)C3)c12 [Example 8-1, (S)-3-Amino-1-(4-methyl-5-isoquinolinesulfonyl)pyrrolidine] | ≥ 20% |
| N[C@H]1CCN(S(=O)(=O)c2cccc3cncc(Cl)c23)C1 [Example 19-1, (S)-3-Amino-1-(4-chloro-5-isoquinolinesulfonyl)pyrrolidine] | ≥ 20% |
| N[C@H]1CCN(S(=O)(=O)c2cccc3cncc(F)c23)C1 [Example 18-1, (S)-3-Amino-1-(4-fluoro-5-isoquinolinesulfonyl)pyrrolidine] | ≥ 20% |
| C#Cc1cncc2cccc(S(=O)(=O)N3CC[C@H](N)C3)c12 [Example 10-1, (S)-3-Amino-1-(4-ethynyl-5-isoquinolinesulfonyl)pyrrolidine] | ≥ 20% |
| N[C@H]1CCN(S(=O)(=O)c2cccc3cncc(Br)c23)C1 [Example 1-1, (S)-3-Amino-1-(4-bromo-5-isoquinolinesulfonyl)pyrrolidine] | ≥ 20% |
| O=S(=O)(c1cccc2cncc(Br)c12)N1CC[C@H](NCc2ccco2)C1 [Example 4-1, (S)-3-(2-Furylmethyl)amino-1-(4-bromo-5-isoquinolinesulfonyl)pyrrolidine] | ≥ 20% |
